For 31 targets, log2 fold change results are on record in the supplement of paper PMC10849652.

The chains behind the UniProt entries cited, without tags or fusion partners. Where a name states a change or a piece, a line headed by the entry shows the natural chain unless it says otherwise.
UniProt P25685, whole entry, looked up: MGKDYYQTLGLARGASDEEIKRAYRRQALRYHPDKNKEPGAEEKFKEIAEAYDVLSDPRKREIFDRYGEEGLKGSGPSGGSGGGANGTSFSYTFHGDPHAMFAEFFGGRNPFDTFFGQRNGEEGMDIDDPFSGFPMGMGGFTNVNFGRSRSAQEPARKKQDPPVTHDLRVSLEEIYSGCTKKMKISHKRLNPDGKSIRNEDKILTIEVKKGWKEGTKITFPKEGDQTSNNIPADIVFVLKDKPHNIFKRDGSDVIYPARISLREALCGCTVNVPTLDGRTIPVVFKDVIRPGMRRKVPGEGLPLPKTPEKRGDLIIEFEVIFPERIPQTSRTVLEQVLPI
UniProt Q14195, whole entry, looked up: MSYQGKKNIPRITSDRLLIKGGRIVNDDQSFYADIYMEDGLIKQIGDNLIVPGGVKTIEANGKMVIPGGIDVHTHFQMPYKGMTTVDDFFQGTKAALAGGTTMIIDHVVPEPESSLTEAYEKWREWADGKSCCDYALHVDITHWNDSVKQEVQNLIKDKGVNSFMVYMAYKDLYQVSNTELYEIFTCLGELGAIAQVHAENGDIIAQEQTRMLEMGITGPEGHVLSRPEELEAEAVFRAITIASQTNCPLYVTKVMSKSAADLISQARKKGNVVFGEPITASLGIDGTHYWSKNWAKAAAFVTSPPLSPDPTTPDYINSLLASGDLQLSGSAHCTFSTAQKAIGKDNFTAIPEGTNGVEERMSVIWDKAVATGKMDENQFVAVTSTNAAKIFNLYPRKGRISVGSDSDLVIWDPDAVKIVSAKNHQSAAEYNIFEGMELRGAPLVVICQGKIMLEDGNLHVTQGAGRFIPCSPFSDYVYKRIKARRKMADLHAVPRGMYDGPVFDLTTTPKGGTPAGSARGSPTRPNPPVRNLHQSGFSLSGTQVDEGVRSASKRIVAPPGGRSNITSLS
UniProt P23919: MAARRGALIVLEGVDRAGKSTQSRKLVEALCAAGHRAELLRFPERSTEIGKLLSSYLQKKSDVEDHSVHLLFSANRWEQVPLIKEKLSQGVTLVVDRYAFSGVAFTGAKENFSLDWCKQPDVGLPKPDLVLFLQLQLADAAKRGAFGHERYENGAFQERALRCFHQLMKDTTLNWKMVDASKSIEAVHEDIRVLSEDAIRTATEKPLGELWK
UniProt P50570: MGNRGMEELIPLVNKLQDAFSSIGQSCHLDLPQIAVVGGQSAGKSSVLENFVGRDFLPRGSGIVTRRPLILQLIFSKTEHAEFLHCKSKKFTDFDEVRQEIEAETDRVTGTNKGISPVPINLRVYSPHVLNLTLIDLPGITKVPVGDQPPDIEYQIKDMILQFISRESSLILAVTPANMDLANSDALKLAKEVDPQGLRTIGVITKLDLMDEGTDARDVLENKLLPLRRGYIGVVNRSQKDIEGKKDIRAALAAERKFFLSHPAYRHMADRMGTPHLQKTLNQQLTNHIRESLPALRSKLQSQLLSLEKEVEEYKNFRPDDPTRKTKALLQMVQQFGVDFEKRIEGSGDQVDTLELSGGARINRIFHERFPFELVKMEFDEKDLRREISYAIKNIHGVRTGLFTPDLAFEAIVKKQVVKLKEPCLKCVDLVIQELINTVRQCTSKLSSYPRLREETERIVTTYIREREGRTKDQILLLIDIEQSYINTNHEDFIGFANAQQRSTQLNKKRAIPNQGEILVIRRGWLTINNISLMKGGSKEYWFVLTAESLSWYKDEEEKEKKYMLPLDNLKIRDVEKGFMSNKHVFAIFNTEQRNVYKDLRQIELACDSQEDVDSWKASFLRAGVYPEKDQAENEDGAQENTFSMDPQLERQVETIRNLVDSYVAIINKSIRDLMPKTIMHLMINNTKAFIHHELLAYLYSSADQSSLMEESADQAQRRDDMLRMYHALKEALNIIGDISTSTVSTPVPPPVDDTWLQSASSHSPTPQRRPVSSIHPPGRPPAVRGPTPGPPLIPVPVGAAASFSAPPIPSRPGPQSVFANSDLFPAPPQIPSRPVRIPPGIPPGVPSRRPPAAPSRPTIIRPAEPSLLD
UniProt Q13409, whole entry, looked up: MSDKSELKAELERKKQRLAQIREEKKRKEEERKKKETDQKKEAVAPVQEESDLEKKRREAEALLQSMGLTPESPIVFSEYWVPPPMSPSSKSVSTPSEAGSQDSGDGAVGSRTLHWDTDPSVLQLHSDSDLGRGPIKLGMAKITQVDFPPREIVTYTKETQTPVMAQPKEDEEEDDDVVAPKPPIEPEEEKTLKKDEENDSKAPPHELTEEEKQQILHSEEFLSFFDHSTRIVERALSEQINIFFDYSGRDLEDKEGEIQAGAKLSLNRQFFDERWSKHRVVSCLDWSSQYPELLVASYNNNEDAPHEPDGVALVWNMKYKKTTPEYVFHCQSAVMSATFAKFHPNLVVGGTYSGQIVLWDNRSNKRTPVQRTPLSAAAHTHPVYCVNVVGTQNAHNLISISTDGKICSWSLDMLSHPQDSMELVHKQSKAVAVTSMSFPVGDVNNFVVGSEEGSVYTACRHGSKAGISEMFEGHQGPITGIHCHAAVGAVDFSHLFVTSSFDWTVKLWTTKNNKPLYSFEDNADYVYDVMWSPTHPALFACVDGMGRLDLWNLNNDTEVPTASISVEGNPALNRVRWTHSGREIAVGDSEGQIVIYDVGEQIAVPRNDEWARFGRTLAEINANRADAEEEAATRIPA
UniProt Q96EV8: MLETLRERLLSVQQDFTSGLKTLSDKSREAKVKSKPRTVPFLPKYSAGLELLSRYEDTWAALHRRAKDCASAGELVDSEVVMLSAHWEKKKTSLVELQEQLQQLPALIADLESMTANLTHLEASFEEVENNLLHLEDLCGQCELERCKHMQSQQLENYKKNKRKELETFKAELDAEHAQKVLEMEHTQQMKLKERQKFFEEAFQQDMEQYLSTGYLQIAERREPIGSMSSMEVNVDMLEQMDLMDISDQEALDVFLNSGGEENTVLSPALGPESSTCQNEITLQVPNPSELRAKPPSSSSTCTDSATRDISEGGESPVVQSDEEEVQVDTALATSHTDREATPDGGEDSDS
UniProt Q15075: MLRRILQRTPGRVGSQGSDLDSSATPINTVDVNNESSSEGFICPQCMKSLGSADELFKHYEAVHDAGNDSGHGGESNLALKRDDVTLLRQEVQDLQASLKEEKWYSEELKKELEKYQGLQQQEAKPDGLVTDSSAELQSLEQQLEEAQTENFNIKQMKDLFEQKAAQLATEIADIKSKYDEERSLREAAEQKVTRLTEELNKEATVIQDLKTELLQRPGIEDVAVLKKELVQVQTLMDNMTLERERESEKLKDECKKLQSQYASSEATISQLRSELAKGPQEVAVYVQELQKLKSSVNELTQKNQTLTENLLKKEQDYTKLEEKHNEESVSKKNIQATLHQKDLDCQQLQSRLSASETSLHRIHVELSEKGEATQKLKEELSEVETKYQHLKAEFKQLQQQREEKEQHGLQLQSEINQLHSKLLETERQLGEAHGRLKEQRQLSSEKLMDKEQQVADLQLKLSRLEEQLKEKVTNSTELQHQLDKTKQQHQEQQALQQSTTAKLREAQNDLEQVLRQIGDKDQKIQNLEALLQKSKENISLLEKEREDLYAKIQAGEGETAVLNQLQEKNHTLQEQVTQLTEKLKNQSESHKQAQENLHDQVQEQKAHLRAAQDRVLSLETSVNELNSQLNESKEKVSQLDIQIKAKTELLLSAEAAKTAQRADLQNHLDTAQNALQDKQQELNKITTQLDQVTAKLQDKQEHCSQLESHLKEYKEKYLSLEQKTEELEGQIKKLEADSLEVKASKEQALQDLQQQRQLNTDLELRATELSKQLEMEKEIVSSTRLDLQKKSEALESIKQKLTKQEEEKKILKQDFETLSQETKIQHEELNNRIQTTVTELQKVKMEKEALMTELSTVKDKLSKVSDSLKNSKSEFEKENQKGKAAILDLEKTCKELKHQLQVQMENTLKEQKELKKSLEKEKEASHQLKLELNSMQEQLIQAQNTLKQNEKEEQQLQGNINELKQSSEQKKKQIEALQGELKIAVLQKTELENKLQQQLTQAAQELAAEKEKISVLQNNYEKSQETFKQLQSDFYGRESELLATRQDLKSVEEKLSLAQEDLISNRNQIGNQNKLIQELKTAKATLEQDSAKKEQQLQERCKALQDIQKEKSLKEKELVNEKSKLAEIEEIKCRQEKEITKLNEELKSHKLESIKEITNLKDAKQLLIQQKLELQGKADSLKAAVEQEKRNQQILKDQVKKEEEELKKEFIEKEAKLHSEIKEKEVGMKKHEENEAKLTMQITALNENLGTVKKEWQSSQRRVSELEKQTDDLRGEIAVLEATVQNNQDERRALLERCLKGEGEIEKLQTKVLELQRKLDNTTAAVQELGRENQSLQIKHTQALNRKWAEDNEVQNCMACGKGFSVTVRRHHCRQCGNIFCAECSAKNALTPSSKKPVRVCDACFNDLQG
UniProt Q9H2P9: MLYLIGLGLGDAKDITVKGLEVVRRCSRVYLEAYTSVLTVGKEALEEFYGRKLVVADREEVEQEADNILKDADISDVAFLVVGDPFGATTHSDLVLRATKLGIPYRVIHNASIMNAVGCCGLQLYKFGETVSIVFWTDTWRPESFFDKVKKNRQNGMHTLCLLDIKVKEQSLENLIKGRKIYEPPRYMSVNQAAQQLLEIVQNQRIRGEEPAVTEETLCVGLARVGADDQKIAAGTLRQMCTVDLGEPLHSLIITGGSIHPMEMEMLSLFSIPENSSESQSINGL
UniProt Q9BV94: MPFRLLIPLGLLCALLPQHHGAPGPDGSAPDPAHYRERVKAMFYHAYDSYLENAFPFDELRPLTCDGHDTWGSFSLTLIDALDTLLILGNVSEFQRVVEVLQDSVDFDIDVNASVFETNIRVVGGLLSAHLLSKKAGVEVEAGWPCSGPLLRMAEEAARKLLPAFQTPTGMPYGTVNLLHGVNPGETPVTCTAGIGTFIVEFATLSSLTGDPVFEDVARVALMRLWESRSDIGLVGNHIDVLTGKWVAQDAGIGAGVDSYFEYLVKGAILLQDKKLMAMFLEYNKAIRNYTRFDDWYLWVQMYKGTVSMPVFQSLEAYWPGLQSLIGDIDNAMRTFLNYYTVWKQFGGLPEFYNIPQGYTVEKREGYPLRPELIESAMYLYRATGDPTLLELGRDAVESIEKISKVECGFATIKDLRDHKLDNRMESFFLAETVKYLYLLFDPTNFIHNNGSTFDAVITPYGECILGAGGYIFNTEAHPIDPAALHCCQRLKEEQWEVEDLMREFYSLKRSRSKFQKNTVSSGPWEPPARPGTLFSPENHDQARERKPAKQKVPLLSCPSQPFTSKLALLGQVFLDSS
UniProt O77932: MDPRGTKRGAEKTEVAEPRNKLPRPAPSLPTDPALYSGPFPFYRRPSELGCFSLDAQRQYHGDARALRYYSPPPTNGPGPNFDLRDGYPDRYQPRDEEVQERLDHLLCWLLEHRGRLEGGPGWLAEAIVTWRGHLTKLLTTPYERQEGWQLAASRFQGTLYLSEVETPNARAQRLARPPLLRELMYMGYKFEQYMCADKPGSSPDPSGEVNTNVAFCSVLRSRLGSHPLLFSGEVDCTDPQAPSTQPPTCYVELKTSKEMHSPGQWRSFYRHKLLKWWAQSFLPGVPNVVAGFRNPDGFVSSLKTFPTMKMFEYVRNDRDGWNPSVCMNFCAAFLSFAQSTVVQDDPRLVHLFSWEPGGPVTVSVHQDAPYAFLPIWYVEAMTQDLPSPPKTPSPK
UniProt Q6XUX3: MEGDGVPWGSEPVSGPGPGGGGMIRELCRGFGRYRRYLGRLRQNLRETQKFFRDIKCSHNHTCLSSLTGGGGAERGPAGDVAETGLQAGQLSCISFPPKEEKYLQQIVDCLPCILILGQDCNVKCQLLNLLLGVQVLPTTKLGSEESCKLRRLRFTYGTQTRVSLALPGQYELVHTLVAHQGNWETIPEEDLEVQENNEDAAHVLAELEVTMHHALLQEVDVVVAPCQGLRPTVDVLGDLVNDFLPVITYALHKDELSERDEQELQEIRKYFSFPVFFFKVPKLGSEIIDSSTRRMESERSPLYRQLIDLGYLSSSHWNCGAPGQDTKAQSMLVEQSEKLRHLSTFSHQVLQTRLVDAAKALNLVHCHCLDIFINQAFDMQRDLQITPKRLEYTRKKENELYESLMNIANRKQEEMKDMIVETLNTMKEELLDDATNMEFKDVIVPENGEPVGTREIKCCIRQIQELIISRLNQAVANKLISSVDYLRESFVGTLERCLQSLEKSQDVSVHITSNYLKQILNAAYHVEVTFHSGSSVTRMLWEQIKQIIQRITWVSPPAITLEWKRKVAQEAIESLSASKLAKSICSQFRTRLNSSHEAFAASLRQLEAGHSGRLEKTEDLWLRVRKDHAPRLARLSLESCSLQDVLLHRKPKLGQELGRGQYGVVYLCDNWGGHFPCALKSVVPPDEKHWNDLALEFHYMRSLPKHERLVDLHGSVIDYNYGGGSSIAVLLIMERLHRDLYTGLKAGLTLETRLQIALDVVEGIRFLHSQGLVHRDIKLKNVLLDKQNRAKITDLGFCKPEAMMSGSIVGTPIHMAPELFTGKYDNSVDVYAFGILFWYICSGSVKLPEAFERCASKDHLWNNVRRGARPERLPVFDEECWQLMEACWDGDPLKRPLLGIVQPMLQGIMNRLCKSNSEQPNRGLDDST

The other results are listed elsewhere or left out.

Compound in the first experiment: CS(=O)(=O)CCNCc1ccc(-c2ccc3ncnc(Nc4ccc(OCc5cccc(F)c5)c(Cl)c4)c3c2)o1 [lapatinib]
Put plainly: log2 fold change, soluble protein after heating vs DMSO (PISA); higher = thermal stabilisation; K562 cells, 10 uM, 30 min; active = over 0.2 and 3.5 SD of the protein, either way, in both replicates (recomputed). Summed up: (§1)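 K562 cells (2×10^6 cells/mL) were treated with 10 μM compound for 30 min, and aliquots were heated for 3 min over 48°C-58°C. Pooled aliquots were extracted in PBS with 0.5% NP-40 at 4°C, and the supernatant after 21,000xg for 90 min was measured by TMTpro 16plex LC-MS/MS with channel sums equalised. Reported thermal stability, relative to control samples and from duplicates, is a log2 fold change.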
With DNAJC1 (UniProt Q96KC8), the log2 fold change was inactive: -0.078.
The same measure, in the same setting: the figure for DNPH1 (UniProt H0Y8X4) is inactive: 0.265; for DNAJB1 (UniProt P25685) it is inactive: -0.032; for DNAJB2 (UniProt P25686) it is inactive: 0.005.
On to EARS2 isoform 2 (UniProt Q5JPH6), for which the log2 fold change was inactive: -0.102.
On the same count and under the same terms, in the case of ECPAS (UniProt Q5VYK3) it was inactive: -0.033; in that of DPYSL3 isoform 2 (UniProt Q14195), inactive: -0.063.
Regarding DNPEP (UniProt C9JBE1), the log2 fold change is inactive: -0.182.
The same measure, in the same setting: the figure for DYNC1LI2 (UniProt O43237) is inactive: 0.116; for DTYMK (UniProt P23919) it is inactive: -0.026; for DOK1 (UniProt Q99704) it is inactive: 0.079.
Take DUS3L (UniProt Q96G46): the log2 fold change is inactive: -0.037.
On the same count and under the same terms, the figure for DNM2 (UniProt P50570) is inactive: -0.026; for DYRK1A isoform 2 (UniProt Q13627) it is inactive: -0.034.
On to DYNC1I2 isoform 5 (UniProt Q13409), for which the log2 fold change is inactive: 0.021.
The same measure, in the same setting: the figure for DTNBP1 (UniProt Q96EV8) is inactive: -0.041; for DNAJB14 (UniProt Q8TBM8) it is inactive: 0.014.
For the target EEA1 (UniProt Q15075), the log2 fold change was inactive: 0.021.
Take DPH5 isoform 5 (UniProt Q9H2P9): the log2 fold change was inactive: 0.043.
Same read-out and setting: the figure for DNAJC5 (UniProt Q9H3Z4) is inactive: -0.056; for DNAJB14 (UniProt H7C494) it is inactive: -0.032; for EDEM2 (UniProt Q9BV94) it is inactive: -0.064.
On the same count and under the same terms, the figure for EBNA1BP2 (UniProt Q99848) is inactive: 0.153; for DNAJC24 (UniProt Q6P3W2) it is inactive: 0.034.

Compound in another experiment: CS(=O)(=O)N1CCN(Cc2cc3nc(-c4cccc5[nH]ncc45)nc(N4CCOCC4)c3s2)CC1 [pictilisib]
The experiment is described as above. A digest of the protocol: as §1
Take DNAJC1 (UniProt Q96KC8): the log2 fold change is inactive: 0.017.
On the same count and under the same terms, the figure for DXO (UniProt O77932) is inactive: 0.042; for DNAJB1 (UniProt P25685) it is inactive: 0.005; for DNAJB2 (UniProt P25686) it is inactive: 0.
Same read-out and setting: in the case of DSTYK (UniProt Q6XUX3) it was inactive: 0.32.
Still for that read-out and setting: the figure for DNMT3B (UniProt Q9UBC3) is inactive: 0.418.
Turning to ECPAS (UniProt Q5VYK3), the log2 fold change is inactive: 0.005.
DPYSL3 isoform 2 (UniProt Q14195): the log2 fold change was inactive: 0.395.
Same read-out and setting: in the case of DNPEP (UniProt C9JBE1) it was inactive: 0.208; in that of DYNC1LI2 (UniProt O43237), inactive: -0.223; in that of DNM2 isoform 4 (UniProt P50570), inactive: -0.123.
Consider DOCK8 (UniProt Q8NF50), for which the log2 fold change is inactive: -0.337.
Regarding DTYMK (UniProt P23919), the log2 fold change was inactive: -0.054.
On the same count and under the same terms, in the case of EDRF1 (UniProt Q3B7T1) it was inactive: 0.244.
For DUS3L (UniProt Q96G46), the log2 fold change was inactive: -0.181.
Same read-out and setting: the figure for DNM2 (UniProt P50570) is inactive: 0.021.
On the same count and under the same terms, the figure for DYRK1A isoform 2 (UniProt Q13627) is inactive: 0.017; for DYNC1I2 isoform 5 (UniProt Q13409) it is inactive: 0.035; for DTNBP1 (UniProt Q96EV8) it is inactive: 0.073.
On the same count and under the same terms, the figure for DNAJB14 (UniProt Q8TBM8) is inactive: 0.084; for EEA1 (UniProt Q15075) it is inactive: 0.
DPH5 isoform 5 (UniProt Q9H2P9): the log2 fold change is inactive: -0.006.
With DUSP14 (UniProt O95147), the log2 fold change is inactive: 0.039.
On the same count and under the same terms, in the case of DNAJC5 (UniProt Q9H3Z4) it was inactive: -0.032.
Still for that read-out and setting: in the case of DNAJB14 (UniProt H7C494) it was inactive: -0.038.
In the case of EDEM2 (UniProt Q9BV94), the log2 fold change is inactive: 0.09.
As for EBNA1BP2 (UniProt Q99848), the log2 fold change was inactive: -0.069.
